According to US6368552B1, “Water treating agent and water treating method” (Kurita Water Industries Ltd., priority 1999, dated 2002):

Test: Autoclave test of transference of the chemical from liquid water phase to steam phase at 200° C. (gas chromatography)
Assay type: physicochemical
Settings: pH 11.5
Method: Each 50 ml of samples were taken from the steam phase and from the liquid phase directly after the temperature had reached at 200° C., which were analyzed for the concentration of the chemical on a gas chromatography. The ratio of the concentration of chemical in the steam phase versus the concentration of chemical in the liquid phase was calculated.

CCCCCCCC1CCC(=O)O1 (centres unmarked) [Example 3, γ-undecalactone]
Conc. of chemical in steam: 34 µg/mL | Conc. of chemical in water: 193 µg/mL
